We go through 62 molecules from PubChem BioAssay AID445 (National Center for Advancing Translational Sciences (NCATS), 2006).

The assay can be described thus: IkB Signaling. The settings on record: ABC-DLBCL IkBa-CBG/CBR dual luciferase ratio (green luciferase fused to IkBa over red control in OCI-Ly3 lymphoma cells), 4 h. A digest of the protocol: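 In this assay, an IκBα–CBG68 fusion accumulates when IKK-driven degradation is blocked; native CBR normalizes for cell number. OCI-Ly3 cells were treated 4 h with compound and doxycycline, then green and red light read after Chroma-Glo addition.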

The mark [1] stands for this setting: measured here: control luc red channel unless noted.

Molecules are shown by their SMILES. The list shows a part of the results. These are further read-outs of the screen, such as a control signal, another cell line or another target. No call is given for them. Compounds called inactive in the main read-out are mostly missing here. Potencies come from curve fits of mixed quality, noted in brackets.

With `CCOc1ccc(CNC(=O)c2ccc(NC(=O)N3CCCCc4ccccc43)cc2)cc1`, under setting [1], the half-maximal activity concentration (AC50) was 10 µM [falling, partial curve].

Take `Cc1c(NC(=O)Cc2ccc(Cl)cc2)cccc1-c1nc2cccnc2s1`: the AC50 under setting [1] was 12.6 µM [falling, partial curve].

In the case of `CCOC(=O)c1c(C)[nH]c(C)c1S(=O)(=O)NCC(=O)Nc1cccc(Cl)c1`, the half-maximal activity concentration (AC50) under setting [1] is 31.6 µM [falling, single point]. Still for that read-out and setting: then `Cc1cccc(CNC(=O)Cn2nc(C)c3nn(-c4ccc(Cl)cc4)c(C)c3c2=O)c1`, with 0.0398 µM [falling, full curve]; and `Cc1c(CNC2CCCCCC2)c(C(=O)O)c(C)n1Cc1cccc(Cl)c1`, with 31.6 µM [falling, partial curve]; and `Cc1ccccc1Nc1c(-c2c[nH]c3ccccc23)nc2ccc(Cl)cn12`, with 0.0631 µM [falling, full curve]. Still for that read-out and setting: then `O=C(CSc1nc(Nc2ccccc2)c2ccccc2n1)c1ccc(Cl)cc1`, with 1 µM [rising, full curve]. Same read-out and setting: then `Cc1ccc(Cl)c(Nc2ccccc2C(=O)O)c1Cl`, with 39.8 µM [rising, single point] [measured here: IkB-luc green channel].

As to `Cc1cc(C)cc(NC(=O)NCc2c(-n3cccc3)sc3c2CCCC3)c1`, under setting [1], the AC50 is 3.16 µM [rising, partial curve]. Same read-out and setting: then `CCOC(=O)c1ccc(N2C(=O)c3n[nH]c(-c4ccco4)c3C2c2ccccc2OC)cc1` (stereo not drawn), with 20 µM [falling, single point]; and `COc1ccc(-c2cc(C(=O)NCc3cccnc3)no2)cc1OC`, with 3.98 µM [falling, partial curve]; and `Cc1ccc(NC(=O)Cn2c(=O)n(Cc3ccccc3)c(=O)c3c(C)c(C(=O)N(C)C)sc32)c(C)c1`, with 0.398 µM [rising, partial curve, poor fit].

In the case of `CCOc1ccc2c(c1)c(=O)c(C(=O)c1ccc(CC)cc1)cn2CC(=O)Nc1ccc2c(c1)OCCO2`, under setting [1], the AC50 was 5.01 µM [falling, partial curve]. Still for that read-out and setting: then `COc1ccc(Cl)cc1NC(=O)Cn1c(=O)n2nc(-c3ccccc3)nc2c2ccccc21`, with 25.1 µM [falling, single point]. Take `COc1ccc(C)c2sc(N(Cc3cccnc3)C(=O)c3cccs3)nc12`: under setting [1], the AC50 is 25.1 µM [falling, partial curve]. On the same count and under the same terms, then `COC(=O)c1c(C)oc2ccc(N(C(=O)c3ccncc3)S(=O)(=O)c3ccc(Br)cc3)cc12`, with 25.1 µM [falling, single point]; and `O=C(Nc1cccc(F)c1)c1cnc2sc(N3CCCC3)nn2c1=O`, with 0.158 µM [falling, full curve].

For the molecule `CC(C)(C)OC(=O)N1CCC(c2c(C(=O)N3CCN(c4cccc(Cl)c4)CC3)cnn2-c2cccc(Cl)c2)CC1`, under setting [1], the half-maximal activity concentration (AC50) is 7.94 µM [rising, single point]. The same measure, in the same setting: then `CCCCCNC(=O)c1ccc2c(=O)n(CC3CCCO3)c(=O)[nH]c2c1` (stereo not drawn), with 10 µM [falling, partial curve]; and `CCOC(=O)C1CCN(C(=O)Cn2nc(C)n3c(cc4c(OC)cccc43)c2=O)CC1`, with 3.16 µM [rising, partial curve]; and `CCC1CN(C(=O)NCc2ccc(F)cc2)c2cc(C)ccc2O1` (stereo not drawn), with 15.8 µM [falling, partial curve]. Still for that read-out and setting: then `CC(=O)COc1ccc2c3c(c(=O)oc2c1C)CCCCC3`, with 0.398 µM [rising, partial curve]; and `CCc1cccc2c3c([nH]c12)[C@](CC)(CC(=O)O)OCC3`, with 15.8 µM [rising, partial curve] [measured here: IkB-luc green channel]. Still for that read-out and setting: then `O=C(CSc1ccnc(=O)[nH]1)NCc1ccc(F)cc1`, with 20 µM [rising, partial curve]. In the case of `CCCCn1cc2c(c1-c1ccc(Br)cc1)c(=O)n(C)c(=O)n2C`, the AC50 under setting [1] was 20 µM [falling, partial curve]. Still for that read-out and setting: then `Cc1cccc(C(=O)NCCc2nc3ccccc3n2CCC(C)C)c1`, with 15.8 µM [falling, partial curve]; and `CCc1ccc(-n2nc(C)c3c(C)cc(=O)n(CC(=O)Nc4cc(Cl)ccc4OC)c32)cc1`, with 25.1 µM [falling, partial curve]; and `Cc1nc2nc(NCc3ccccc3Cl)[nH]n2c(=O)c1Cc1ccccc1`, with 39.8 µM [falling, single point]. Same read-out and setting: then `CCCSC1=NC2(CCN(C(=O)NC3CCCCC3)CC2)N=C1c1ccc(C)cc1`, with 3.98 µM [rising, single point].

For the molecule `Cc1ccc(C)c(OCc2nc3ccccc3n2C)c1`, the AC50 under setting [1] is 2 µM [rising, partial curve]. As for `Cc1ccccc1NC(=O)CSc1nc2c(oc3ccccc32)c(=O)n1Cc1ccco1`, under setting [1], the concentration at half-maximal activity (AC50) is 20 µM [rising, partial curve]. On to `Cc1c(C(=O)OCc2ccccc2)[nH]c2c1C(=O)CC(c1ccco1)C2` (stereo not drawn), for which the half-maximal activity concentration (AC50) is 0.794 µM [rising, full curve] (measured here: IkB-luc green channel) and 0.251 µM [rising, full curve] (measured here: control luc red channel). Take `COc1ccc(OC)c(CCNC(=O)c2ccc3c(c2)N(Cc2ccccc2)CCS3)c1`: under setting [1], the AC50 is 25.1 µM [falling, partial curve]. On the same count and under the same terms, then `COC(=O)c1sccc1S(=O)(=O)N1CCN(c2cccc(C)c2)C(C)C1` (stereo not drawn), with 15.8 µM [falling, partial curve]. As for `CCOC(=O)c1cccc(NC(=O)C2COc3ccc(OC)cc3C2)c1` (stereo not drawn), under setting [1], the AC50 is 31.6 µM [falling, partial curve]. The same measure, in the same setting: then `CCCCc1ccc(NC(=O)Cn2cnc3c(oc4ccccc43)c2=O)cc1`, with 0.01 µM [rising, full curve, poor fit]. Still for that read-out and setting: then `COc1ccc(C)cc1NC(=O)CSc1nc(=O)n(Cc2ccco2)c2c1CCC2`, with 7.94 µM [falling, partial curve]; and `CCN(CC)CC(=O)Nc1c(Br)ccc2c1OCO2`, with 3.98 µM [falling, partial curve]; and `Cc1ccc(-n2ncc3c(NCCCN(C)C)ncnc32)cc1Cl`, with 20 µM [rising, partial curve]. As for `COc1ccc(Nc2ncc3c(n2)CCN(Cc2sccc2C)C3)c(OC)c1`, the half-maximal activity concentration (AC50) under setting [1] was 31.6 µM [falling, single point]. Still for that read-out and setting: then `COc1ccc(OC)c(-c2cc(C(=O)Nc3c(C)nn(Cc4ccc(C)cc4)c3C)no2)c1`, with 15.8 µM [falling, single point]. Same read-out and setting: then `COc1ccc(C2Sc3nncn3N2Cc2ccc(C#N)cc2)cc1` (stereo not drawn), with 10 µM [falling, partial curve]; and `COc1ccc(C(CNC(=O)c2oc3cc(Br)ccc3c2C)N2CCCCC2)cc1` (stereo not drawn), with 39.8 µM [falling, single point]. On the same count and under the same terms, then `Cc1ccc(NC(=O)c2c(C)oc3ccc(O)c(CN4CCN(Cc5ccccc5)CC4)c23)cc1`, with 15.8 µM [falling, partial curve]; and `CCn1nnc(NC(=O)c2cccc(-c3cc4ccccc4oc3=O)c2)n1`, with 15.8 µM [falling, partial curve]; and `Cc1ccc(CN2CCC(CNC(=O)c3cnn(-c4ccc(C)cc4)c3C3CCN(C(=O)OC(C)(C)C)CC3)CC2)cc1`, with 7.94 µM [falling, full curve]. Turning to `Cc1ccc(S(=O)(=O)N(CC(=O)Nc2cccnc2)c2cc(Cl)ccc2C)cc1`, under setting [1], the concentration at half-maximal activity (AC50) was 20 µM [falling, partial curve]. Same read-out and setting: then `COc1ccc(NC(=O)CC2C(=O)N(c3ccccc3)C(=O)N2CCc2sccc2C)cc1` (stereo not drawn), with 39.8 µM [falling, single point]. The same measure, in the same setting: then `Brc1ccc(-c2nn3c(-c4ccccn4)nnc3s2)o1`, with 15.8 µM [falling, partial curve]. Same read-out and setting: then `CCN(CC)S(=O)(=O)c1cc(-c2ccc(=O)n(C(C)C(=O)Nc3cccc(C#N)c3)n2)ccc1C` (stereo not drawn), with 31.6 µM [falling, single point]. In the case of `Cc1cc(C)cc(N(CC(=O)Nc2c(C)cc(C)cc2C)S(=O)(=O)c2c(C)nn(C)c2C)c1`, the concentration at half-maximal activity (AC50) under setting [1] is 25.1 µM [falling, partial curve]. Still for that read-out and setting: then `COc1ccc(C(=O)Nc2nc3c(s2)Cc2c(Br)ccc(OC)c2-3)cc1OC`, with 6.31 µM [falling, partial curve]; and `COc1ccc(-c2noc(CSc3nnc(Cc4ccccc4)n3-c3ccc(F)cc3)n2)cc1`, with 15.8 µM [falling, partial curve]. On to `COc1ccc(CNC(=O)CCCn2ccc3cc(S(=O)(=O)N4CCCC4)ccc32)cc1`, for which the AC50 under setting [1] was 25.1 µM [falling, single point]. On the same count and under the same terms, then `CC(C)(C)n1nc2c(c1NC(=O)COc1ccc(Cl)cc1)CSC2`, with 15.8 µM [falling, partial curve]; and `COc1ccc(-c2nnn3c2nc(NCCc2ccc(OC)c(OC)c2)c2ccccc23)cc1`, with 0.631 µM [falling, full curve]. Same read-out and setting: then `Cc1ccccc1NC(=O)c1c(NC(=O)c2ccccc2F)sc2c1CCC(C)C2` (stereo not drawn), with 3.98 µM [falling, full curve]; and `CCCCN1C(=O)c2[nH]nc(-c3ccccc3O)c2C1c1ccc(OCc2ccccc2)c(OC)c1` (stereo not drawn), with 20 µM [falling, partial curve]. For `COc1ccc(Cn2ccc3nc(C)c(C(=O)N4CCN(c5ccc(F)cc5)CC4)cc3c2=O)cc1`, the AC50 under setting [1] is 25.1 µM [falling, partial curve]. The same measure, in the same setting: then `Cc1ccc(Sc2c(C)nn(C(C)(C)C)c2OC(=O)CC(C)C)cc1`, with 39.8 µM [falling, partial curve, poor fit]. Turning to `CCOC(=O)c1cccc(NC(=O)CCc2c(C)nn(-c3ccc(N4CCCCC4)nn3)c2C)c1`, the AC50 under setting [1] was 39.8 µM [falling, single point]. Still for that read-out and setting: then `Cc1cccc(NC(=O)C2CCCN(C(=O)NC3CCCCC3)C2)c1C` (stereo not drawn), with 5.01 µM [rising, partial curve] [measured here: IkB-luc green channel].
